Source: article PMC8977741
No constants are given. Whether binding was seen depends on the method and setting. Binding seen in cells or lysates may run through a third protein. Some binding calls cover weakened binding; strength is not graded here. Tags and fused reporters may be left off the sequences shown.

Target: T1, endogenous TRAF6 of RAW 264.7 cells (mouse (endogenous in RAW 264.7)) (UniProt P70196)
T1 sequence: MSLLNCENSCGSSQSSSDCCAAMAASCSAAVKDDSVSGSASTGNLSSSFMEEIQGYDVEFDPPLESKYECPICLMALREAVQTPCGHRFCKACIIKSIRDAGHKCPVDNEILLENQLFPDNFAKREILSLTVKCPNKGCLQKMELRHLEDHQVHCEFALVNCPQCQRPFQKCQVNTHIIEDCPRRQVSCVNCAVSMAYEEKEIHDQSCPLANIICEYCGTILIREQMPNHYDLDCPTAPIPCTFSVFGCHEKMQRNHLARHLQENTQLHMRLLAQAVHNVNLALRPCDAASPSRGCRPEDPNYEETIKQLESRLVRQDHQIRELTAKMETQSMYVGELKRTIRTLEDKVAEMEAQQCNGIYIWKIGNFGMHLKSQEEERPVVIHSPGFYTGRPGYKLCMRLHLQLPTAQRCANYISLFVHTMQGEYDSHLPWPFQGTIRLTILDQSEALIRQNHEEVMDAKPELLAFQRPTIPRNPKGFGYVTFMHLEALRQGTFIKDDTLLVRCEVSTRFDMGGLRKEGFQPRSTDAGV
Assay: co-IP; IP of endogenous TRAF6 with anti-TRAF6 from RAW 264.7 cells transduced with the PEP-NASP or NASP, without or with LPS stimulation; immunoblot with anti-His, anti-NASP or anti-TRAF6

B1: His-PEP-NASP (sNASP residues 1 ~ 31 fused with PEP-1) (peptide)
chain: KETWWETWWTEWSQPKKKRKVMAMESTATAAVAAELVSADKIEDVPAPSTSA
  binding: binds
